## Primary screen of a compound library

Mtb growth Cornell: 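Whole-cell assay for inhibitors of Mycobacterium tuberculosis growth, labelled Cornell in the record; the read-out is not stated. The concentration is filed as 10 mM, unlikely as a test dose, so the dose is not known. The record gives no direction; compounds strong in two other growth screens of this library score well above the rest, so higher reads as stronger inhibition. About 53,000 compounds were tested under these conditions; 1.7% (about 900) showed 50% or more at least once.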
Mtb heat-shock: 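Assay on Mycobacterium tuberculosis, filed only as a heat shock assay from Cornell; the read-out is not stated. The concentration is filed as 10 mM, unlikely as a test dose, so the dose is not known. Higher reads as stronger inhibition (inferred: compounds with an IC50 in retests scored well above the rest). About 69,000 compounds were tested under these conditions; 1.4% (about 930) showed 50% or more at least once.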

The filed quantity is “Percent Effect” (%).
The record does not define 0% and 100%; most values in the screen are far below 50% and negative numbers occur (in some assays of this library far below -100).
The compounds are a random part of those screened.
A dash means the value is not listed here; it may have been measured.

With O=C(O)C(F)(F)F.O=C(O)C(F)(F)F.O=C(O)C(F)(F)F.[H][C@]12C[C@@H](CN3CCCC3)N(c3nccs3)[C@@]1([H])CCN(C)C2 the screen gave Mtb growth Cornell: 22.69%; Mtb heat-shock: 17.76%. For FC(F)(F)c1ccnc(N2CCCOCC2)c1 the result was Mtb growth Cornell: 27.27%; Mtb heat-shock: 12.98%. [H][C@@]12CCN(Cc3cccc(C)n3)C[C@@]1([H])O[C@@H](C)C2 read Mtb growth Cornell: 7.709%; Mtb heat-shock: -12.07%. Cc1cccc(C)c1OCC(C)Nc1nc(N)nc2c1CCNC2 (stereo not drawn) gave Mtb growth Cornell: -7.667%; Mtb heat-shock: 8.79%. With CCOCC(=O)N1CCn2cc(CN(C)Cc3ccco3)nc2C1 the screen gave Mtb growth Cornell: -2.34%; Mtb heat-shock: 27.73%. O=S(=O)(NCCc1cn2ccccc2n1)N1CCOCC1 gave Mtb heat-shock: 7.243%. Nc1cc2c(nn1)CCN(C(=O)Cc1ccc3c(c1)CCO3)C2 gave Mtb growth Cornell: -28.26%; Mtb heat-shock: -24.94%.

CC(C)(C)NCc1ccc(OCc2ccc3c(c2)OCCO3)cc1.Cl read Mtb growth Cornell: 23.43%; Mtb heat-shock: -29.37%. For O=C(O)C(F)(F)F.O=C(O)C(F)(F)F.[H][C@@]12CCN(C(=O)Cc3ccsc3)[C@@]1([H])CC(=O)N2Cc1cccnc1 the result was Mtb growth Cornell: -4.604%; Mtb heat-shock: -3.092%. Result for CCC(=O)N1CCC(c2nc3ccc(NC(C)C)cn3n2)CC1 was Mtb growth Cornell: 12.67%; Mtb heat-shock: -1.689%. Cc1cnc(N2CCOC3(COCCN(c4nccs4)C3)C2)nc1 (stereo not drawn) gave Mtb growth Cornell: -12.93%; Mtb heat-shock: 9.303%. CCc1nnc2n1CCN(Cc1csc(Cc3ccccc3)n1)C2 read Mtb growth Cornell: -19.96%; Mtb heat-shock: -17.32%. CN1C(=O)CC[C@]12CC[C@@H](NCc1ccsc1)CC2.O=C(O)C(F)(F)F gave Mtb growth Cornell: 19.93%; Mtb heat-shock: -7.77%. For CC(C)NS(=O)(=O)c1cc(C(=O)O)cc(-n2cc3c(n2)CCC3)c1 the result was Mtb growth Cornell: -0.9906%; Mtb heat-shock: 18.28%.

With O=C(CCc1nccs1)N1CCN(c2ccc(Cl)cn2)CC1 the screen gave Mtb heat-shock: 26.8%. With CC(c1ccccc1)N1Cc2nc(N(C)C)ncc2C1=O (stereo not drawn) the screen gave Mtb growth Cornell: -51.61%; Mtb heat-shock: -20.03%. With COc1ccc(OC)c(-n2c(COC(C)C)n[nH]c2=O)c1 the screen gave Mtb growth Cornell: -3.068%; Mtb heat-shock: 0.1299%. O=C(NCC1(c2cccs2)CCCCC1)N1CCOC(CO)C1 (stereo not drawn) gave Mtb growth Cornell: 24.65%; Mtb heat-shock: 4.371%. Cc1nn(C)cc1Cn1c(=O)ccc2ccccc21 gave Mtb growth Cornell: 3.186%; Mtb heat-shock: 7.423%. Cc1cnc(N2CCC3(CCN(CC4CC4)C3=O)CC2)nc1 read Mtb growth Cornell: 12.9%; Mtb heat-shock: -7.672%. Result for O=C(CN(Cc1ccccc1)CC1CCOCC1)Nc1nccs1 was Mtb growth Cornell: 42.61%; Mtb heat-shock: -5.372%.

With Cc1cnn(CC(C)NCc2ccccc2OCc2cccnc2)c1 (stereo not drawn) the screen gave Mtb growth Cornell: 9.882%; Mtb heat-shock: -7.537%. With O=C(O)C(F)(F)F.[H][C@@]12CC(=O)N(c3cccnc3)[C@@]1([H])CCN2C(=O)c1ccco1 the screen gave Mtb growth Cornell: -33.22%; Mtb heat-shock: -4.377%. For [H][C@@]12OCCN(C(=O)CC3=CCCCC3)[C@@]1([H])CC[C@@H]2OCC the result was Mtb growth Cornell: -30.33%; Mtb heat-shock: -25.04%. Cc1nc(CN2CCN(C(=O)NC(C)c3cccnc3)CC2)cs1 (stereo not drawn) read Mtb heat-shock: -41.07%. Result for CCN(CCn1cccn1)Cc1nc(-c2ccc(C)o2)oc1C was Mtb growth Cornell: -16.14%; Mtb heat-shock: -21.75%. For COc1ccc(NC(C)c2nnnn2-c2ccccc2)cn1 (stereo not drawn) the result was Mtb growth Cornell: 0.2855%; Mtb heat-shock: -2.33%. Result for Cc1ccc(OCCN(C)C(=O)CCCN2CCCC2=O)c(C)c1 was Mtb growth Cornell: -15.83%; Mtb heat-shock: 29.56%.

For OC(CN1CCOCC1)c1ccc(Br)cc1 (stereo not drawn) the result was Mtb heat-shock: -20.32%. Result for Cn1nc(C(=O)NCc2ccc(F)cc2)c2c1CCS(=O)(=O)C2 was Mtb heat-shock: 16.82%. CCCN1CCC2(CC1)CN(C(=O)c1cccnc1)c1ccc(F)cc12.O=C(O)C(F)(F)F.O=C(O)C(F)(F)F gave Mtb growth Cornell: 5.76%; Mtb heat-shock: 1.02%. Result for CC(C)c1noc(CCCC(=O)NCC2CCS(=O)(=O)C2)n1 (stereo not drawn) was Mtb heat-shock: -25.27%. With O=C(O)C(F)(F)F.[H][C@]12C[C@@H](CN(C)C)N(CC3CC3)[C@@]1([H])CCN(C(=O)c1ccoc1)C2 the screen gave Mtb growth Cornell: 9.918%; Mtb heat-shock: -14.32%. For Cc1nc(C)n(CCCNC(=O)C(C)n2ccnc2C(C)C)n1 (stereo not drawn) the result was Mtb growth Cornell: 16.96%; Mtb heat-shock: -9.138%. With O=C(CN1CCc2ccccc2C1)NCc1cc2n(n1)CCCNC2 the screen gave Mtb growth Cornell: 17.7%; Mtb heat-shock: -43.18%.

Cc1ccc(C(=O)N2CCC3(CCN3Cc3ccc(F)cc3)C2)cn1.O=C(O)C(F)(F)F (stereo not drawn) read Mtb growth Cornell: 5.456%; Mtb heat-shock: 99.27%. With Cc1nn(-c2ccccc2)c(C)c1CN1CCNCC1 the screen gave Mtb heat-shock: -24.3%. Result for Cc1nn(C)c2nc(NCCOCCO)sc12 was Mtb heat-shock: 0.1698%. With c1cnc(N2CCN(CCn3ccnc3-c3c[nH]cn3)CC2)nc1 the screen gave Mtb growth Cornell: -21.19%; Mtb heat-shock: 17.8%. O=C(NCCCN1CCN(c2ncccn2)CC1)NCC1CCCO1 (stereo not drawn) gave Mtb growth Cornell: 27.34%; Mtb heat-shock: -5.602%. CCc1nc(C2CCCN(c3nccc(N4CCCC4)n3)C2)no1 (stereo not drawn) gave Mtb heat-shock: -10.21%. Cc1ccc2nc(CNCCCN3CCCC3)cc(O)c2c1 gave Mtb growth Cornell: -6.601%; Mtb heat-shock: 7.682%.

For NC(=O)CN1CCOCC(Cc2ccccc2Cl)C1 (stereo not drawn) the result was Mtb growth Cornell: -12.61%; Mtb heat-shock: -17.25%. COc1ccc(NC(=O)CCc2c(C)nc3cc(O)nn3c2C)cn1 gave Mtb growth Cornell: 65.23%; Mtb heat-shock: 61.44%. With COCCN1CCC(N(Cc2noc(C3CC3)n2)C(C)=O)C1 (stereo not drawn) the screen gave Mtb growth Cornell: 10.27%; Mtb heat-shock: 14.21%. For COCCC(=O)NCC1COc2cc(OC)ccc2C1 (stereo not drawn) the result was Mtb growth Cornell: -17.69%; Mtb heat-shock: 24.32%. Result for CC(C)C[C@@H](CO)n1cc(-c2cncnc2)nn1 was Mtb growth Cornell: -36.63%; Mtb heat-shock: 20.14%. With O=C(c1cnn2c(-c3ccco3)ccnc12)N1CCCCCC1 the screen gave Mtb growth Cornell: 38.47%; Mtb heat-shock: 5.768%.

5 of the entries, repeated:

Compound	Mtb growth Cornell	Mtb heat-shock
Nc1cc2c(nn1)CCN(C(=O)Cc1ccc3c(c1)CCO3)C2	-28.26%	-24.94%
CCc1nc(C2CCCN(c3nccc(N4CCCC4)n3)C2)no1 (stereo not drawn)	-	-10.21%
Cc1cnc(N2CCOC3(COCCN(c4nccs4)C3)C2)nc1 (stereo not drawn)	-12.93%	9.303%
Cc1nn(-c2ccccc2)c(C)c1CN1CCNCC1	-	-24.3%
O=C(NCCCN1CCN(c2ncccn2)CC1)NCC1CCCO1 (stereo not drawn)	27.34%	-5.602%

Measurements from “University of Dundee, Small-Polar-MMV Screening Library” (2021), ChEMBL document CHEMBL3988442.